Source: PubChem BioAssay AID1259301 (Sanger Institute, 2017)
Screen: 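Synthetic lethal pairings of kinase siRNAs with targeted drugs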 (secondary rescreen of primary hits using four separate siRNAs per gene). Cells: LS180 human colorectal cancer cells. Reagent: single siRNA against human genes. Treatment: anchor drug BYL719 at 1 µM, cetuximab at 5 µg/ml or trametinib at 10 nM, each against a DMSO vehicle arm. Detection: 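Replicate-averaged survival as a fraction of the non-targeting pool 2 control, and per-drug synergy scores measured relative to the anchor drug on its own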. Direction: synergy score with BYL719 and synergy score with cetuximab and synergy score with trametinib: higher = stronger synergistic (synthetic lethal) killing. Active means: 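a gene is called when its synergy score is above 0.10 for one or more of the three anchor drugs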. Calls: active = synergy with at least one drug; inactive = no synergy with any drug.
In all, the deposit lists 160 reagents; below is an unselected part. Over the whole deposit, 67 (42%) were called active. 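Calls rest on synergy in any drug arm, not on siRNA-alone viability; rescreen tested four distinct siRNAs for each gene.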 Reagents against one gene are numbered here. Not all columns of the deposit are shown. Not given: the amount of reagent, the time to read-out.

SYNCRIP (GeneID 10492) #1
- synergy score with BYL719: 0.128
- synergy score with cetuximab: 0.2
- synergy score with trametinib: 0.0992
- activity call: active

SYNCRIP (GeneID 10492) #2
- synergy score with BYL719: 0.00129
- synergy score with cetuximab: -0.0241
- synergy score with trametinib: 0.0633
- activity call: inactive

SYNCRIP (GeneID 10492) #3
- synergy score with BYL719: -0.127
- synergy score with cetuximab: -0.0476
- synergy score with trametinib: -0.0323
- activity call: inactive

SYNCRIP (GeneID 10492) #4
- synergy score with BYL719: -0.117
- synergy score with cetuximab: -0.0361
- synergy score with trametinib: -0.0376
- activity call: inactive

IRAK3 (GeneID 11213) #1
- synergy score with BYL719: 0.0992
- synergy score with cetuximab: -0.0071
- synergy score with trametinib: 0.107
- activity call: active

IRAK3 (GeneID 11213) #2
- synergy score with BYL719: -0.0684
- synergy score with cetuximab: 0.0423
- synergy score with trametinib: -0.0033
- activity call: inactive

IRAK3 (GeneID 11213) #3
- synergy score with BYL719: -0.161
- synergy score with cetuximab: -0.05
- synergy score with trametinib: -0.0869
- activity call: inactive

IRAK3 (GeneID 11213) #4
- synergy score with BYL719: 0.0528
- synergy score with cetuximab: -0.0436
- synergy score with trametinib: 0.0782
- activity call: inactive

BMPR2 (GeneID 659) #1
- synergy score with BYL719: 0.00424
- synergy score with cetuximab: -0.0604
- synergy score with trametinib: 0.0018
- activity call: inactive

BMPR2 (GeneID 659) #2
- synergy score with BYL719: -0.0265
- synergy score with cetuximab: -0.0629
- synergy score with trametinib: 0.0721
- activity call: inactive

BMPR2 (GeneID 659) #3
- synergy score with BYL719: -0.032
- synergy score with cetuximab: 0.071
- synergy score with trametinib: 0.137
- activity call: active

BMPR2 (GeneID 659) #4
- synergy score with BYL719: -0.0902
- synergy score with cetuximab: -0.129
- synergy score with trametinib: 0.0424
- activity call: inactive

MARK3 (GeneID 4140) #1
- synergy score with BYL719: -0.24
- synergy score with cetuximab: -0.0879
- synergy score with trametinib: -0.0195
- activity call: inactive

MARK3 (GeneID 4140) #2
- synergy score with BYL719: -0.0377
- synergy score with cetuximab: 0.00161
- synergy score with trametinib: 0.143
- activity call: active

MARK3 (GeneID 4140) #3
- synergy score with BYL719: -0.217
- synergy score with cetuximab: -0.074
- synergy score with trametinib: 0.0388
- activity call: inactive

MARK3 (GeneID 4140) #4
- synergy score with BYL719: -0.163
- synergy score with cetuximab: -0.133
- synergy score with trametinib: 0.103
- activity call: active

SYK (GeneID 6850) #1
- synergy score with BYL719: -0.0791
- synergy score with cetuximab: -0.102
- synergy score with trametinib: -0.0756
- activity call: inactive

SYK (GeneID 6850) #2
- synergy score with BYL719: -0.262
- synergy score with cetuximab: -0.109
- synergy score with trametinib: 0.0462
- activity call: inactive

SYK (GeneID 6850) #3
- synergy score with BYL719: 0.0629
- synergy score with cetuximab: 0.0392
- synergy score with trametinib: 0.116
- activity call: active

SYK (GeneID 6850) #4
- synergy score with BYL719: -0.14
- synergy score with cetuximab: -0.157
- synergy score with trametinib: -0.0498
- activity call: inactive

CAMK2N1 (GeneID 55450) #1
- synergy score with BYL719: 0.0373
- synergy score with cetuximab: -0.046
- synergy score with trametinib: 0.174
- activity call: active

CAMK2N1 (GeneID 55450) #2
- synergy score with BYL719: 0.261
- synergy score with cetuximab: -0.193
- synergy score with trametinib: -0.211
- activity call: active

CAMK2N1 (GeneID 55450) #3
- synergy score with BYL719: 0.0496
- synergy score with cetuximab: -0.0778
- synergy score with trametinib: -0.0748
- activity call: inactive

CAMK2N1 (GeneID 55450) #4
- synergy score with BYL719: 0.0849
- synergy score with cetuximab: 0.0718
- synergy score with trametinib: -0.0316
- activity call: inactive

In a second layout: 3 of the entries above.
gene knocked down | reagent no. | synergy score with BYL719 | synergy score with cetuximab | synergy score with trametinib | activity call
IRAK3 (GeneID 11213) | 1 | 0.0992 | -0.0071 | 0.107 | active
IRAK3 (GeneID 11213) | 2 | -0.0684 | 0.0423 | -0.0033 | inactive
IRAK3 (GeneID 11213) | 3 | -0.161 | -0.05 | -0.0869 | inactive
